Measurements from US20090054353A1, “MANNOSYL-1 PHOSPHATES, PREPARATION METHOD AND THERAPEUTIC USE, IN PARTICULAR AGAINST THE CDG-IA SYNDROME” (priority 2006, published 2009).
Some entries share one result that the patent states for a list of compounds. At least one structure is not confirmed: it was looked up by name or label, or the drawing left a doubt.

System: lymphoblasts of CDG-Ia diseases
Test: inhibition of incorporation of 2-[3H]mannose into cellular glycoconjugates ("radioactivity")
Format: cell-based, human
Conditions: dose of 500 μM; lymphoblasts from healthy subjects and CDG-Ia patients
Description: The compounds of formula I, II and III were tested as prodrugs (i.e. as intracellular sources of Man-1 P), on the one hand, in order to evaluate their toxicity and, on the other hand, in order to assess their capacity to inhibit the incorporation of 2-[^3H]mannose into cellular glycoconjugates. Indeed, while they can generate Man-1 P in cells, it will be in competition with 2-[^3H]mannose-1 phosphate for entering the pathway for biosynthesis of glycoproteins (see Eklund, E. A., et al. cited above).
The products were tested (5 trials per product and per dose) on lymphoblasts of CDG-Ia diseases and their activities (“radioactivity”, i.e. inhibition, by competition, of the binding of 2-[^3H]mannose-1 phosphate; and cell “toxicity”) were assessed as a percentage relative to the controls (10 trials).

Row | Compound | inhibition of the incorporation of 2[3H]mannose into the glycoproteins
1 | CC(=O)OC[C@H]1O[C@H](OP(=O)(OCOC(=O)C(C)(C)C)OCOC(=O)C(C)(C)C)[C@@H](OC(C)=O)[C@@H](OC(C)=O)[C@@H]1OC(C)=O [CP1, di(pivaloyloxymethyl) (2,3,4,6-tetra-O-acetyl)-α-D-mannopyranosyl-1] phosphate] | at least 90%
2 | CC(C)(C)C(=O)OCOP(=O)(OCOC(=O)C(C)(C)C)O[C@H]1O[C@H](COC(=O)C(C)(C)C)[C@@H](OC(=O)C(C)(C)C)[C@H](OC(=O)C(C)(C)C)[C@@H]1OC(=O)C(C)(C)C [CP3, di(pivaloyloxymethyl) (2,3,4,6-tetra-O-pivaloyl-α-D-manno-pyranosyl-1) phosphate] | at least 90%
3 | CCOC(=O)OC[C@H]1O[C@H](OP(=O)(OCOC(C)=O)OCOC(C)=O)[C@@H](OC(=O)OCC)[C@@H](OC(=O)OCC)[C@@H]1OC(=O)OCC [CP6, di(acetyloxymethyl) (2,3,4,6-tetra-O-ethyloxycarbonyl)-α-D-manno-pyranosyl-1) phosphate] | at least 90%
